Measured data: PubChem BioAssay AID1508588 (Peter MacCallum Cancer Centre, 2020)
This is one part, drawn at random, of about 18,000 reagents tested. Over the whole deposit, 790 (4.4%) were called active. 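Calls rest on a combination of fold-change classes in drug and vehicle arms, not all shown here.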 No sequences are given here.

- Assay: 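Which gene losses make BRAF-mutant melanoma cells more responsive to vemurafenib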 (primary screen)
- Cells: human WM266.4 melanoma cells (BRAF V600 mutant)
- Knock-down reagent: siRNA pool against human genes, 40 nM
- Duration: 96 h from transfection to read-out
- Treatment: vemurafenib 300 nM (about IC25), added 48 h after transfection, for 48 h; comparison arm got DMSO vehicle only
- Measured: 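Ratios to non-targeting siRNA for cell gain, counted as DAPI nuclei after minus before drug and averaged over two replicates, and for absorbance-read medium lactate per cell; both binned into fold-change classes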
- Scale: cell gain with vemurafenib: higher = more cell gain than with non-targeting siRNA; lactate per cell with vemurafenib: higher = more lactate made per cell
- Active means: 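Enhancement is called by pairing each knock-down's vehicle-arm and drug-arm fold-change classes for viability or glycolysis; which class combinations qualify is not given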
- Calls: active = enhances vemurafenib effect; inactive = no enhancement seen

no.	gene knocked down	cell gain with vemurafenib	lactate per cell with vemurafenib	call
1	PCNX4 (pecanex 4)	0.76	0.7	inactive
2	KCNQ5 (potassium voltage-gated channel subfamily Q member 5)	0.59	1.31	inactive
3	SH2B2 (SH2B adaptor protein 2)	0.38	0.77	inactive
4	PROK1 (prokineticin 1)	0.4	1.92	inactive
5	ACYP2 (acylphosphatase 2)	0.75	1.03	inactive
6	HDDC2 (HD domain containing 2)	1.14	0.38	active
7	CNN2 (calponin 2)	0.7	1.71	inactive
8	AKAP7 (A-kinase anchoring protein 7)	0.39	1.45	inactive
9	FGFR4 (fibroblast growth factor receptor 4)	0.82	0.92	inactive
10	KLHL40 (kelch like family member 40)	0.95	0.5	inactive
11	GRK7 (G protein-coupled receptor kinase 7)	0.19	0.5	inactive
12	CD47 (CD47 molecule)	0.48	1.06	inactive
13	TM9SF4 (transmembrane 9 superfamily member 4)	0.76	0.78	inactive
14	ZNF530 (zinc finger protein 530)	0.69	1.04	inactive
15	INSL3 (insulin like 3)	0.32	1.21	inactive
16	LOXL1 (lysyl oxidase like 1)	0.23	0.48	inactive
17	KLRG2 (killer cell lectin like receptor G2)	0.47	0.86	inactive
18	WBP2NL (WBP2 N-terminal like)	1.39	0.4	inactive
19	NEDD4L (NEDD4 like E3 ubiquitin protein ligase)	0.62	0.57	inactive
20	KANSL2 (KAT8 regulatory NSL complex subunit 2)	0.49	1.5	inactive
21	FOXD2 (forkhead box D2)	0.65	1.03	inactive
22	MTO1 (mitochondrial tRNA translation optimization 1)	0.52	0.4	active
23	SF3B2 (splicing factor 3b subunit 2)	-0.01	1.36	inactive
24	TDRKH (tudor and KH domain containing)	0.78	1.25	inactive
25	IDH2 (isocitrate dehydrogenase (NADP(+)) 2)	0.69	0.92	inactive
26	RANBP9 (RAN binding protein 9)	0.36	1.91	inactive
27	CACNA1S (calcium voltage-gated channel subunit alpha1 S)	0.88	0.72	inactive
28	CHID1 (chitinase domain containing 1)	0.53	0.79	inactive
29	FLAD1 (flavin adenine dinucleotide synthetase 1)	0.6	0.98	inactive
30	DYNC1I2 (dynein cytoplasmic 1 intermediate chain 2)	0.59	0.64	inactive
31	WDPCP (WD repeat containing planar cell polarity effector)	0.74	1.52	inactive
32	MOS (MOS proto-oncogene, serine/threonine kinase)	0.67	1.14	inactive
33	CASTOR1 (cytosolic arginine sensor for mTORC1 subunit 1)	0.84	0.84	inactive
34	RNASE7 (ribonuclease A family member 7)	0.45	0.4	inactive
35	ATL3 (atlastin GTPase 3)	0.45	0.15	active
36	LDB1 (LIM domain binding 1)	0.75	0.74	inactive
37	ACOX3 (acyl-CoA oxidase 3, pristanoyl)	0.72	0.81	inactive
38	RASSF3 (Ras association domain family member 3)	0.39	0.77	inactive
39	CASK (calcium/calmodulin dependent serine protein kinase)	0.47	0.86	inactive
40	ATOH8 (atonal bHLH transcription factor 8)	1.04	0.87	inactive
41	HTATIP2 (HIV-1 Tat interactive protein 2)	0.49	0.6	inactive
42	TNNT3 (troponin T3, fast skeletal type)	0.45	1.33	inactive
43	TOP3B (DNA topoisomerase III beta)	0.78	0.8	inactive
44	CSTA (cystatin A)	-0.21	0.45	inactive
45	WTAP (WT1 associated protein)	0.29	0.5	inactive
46	MGAT3	0.54	0.5	inactive
47	PDC (phosducin)	0.82	1.08	inactive
48	ATP10B (ATPase phospholipid transporting 10B (putative))	0.76	0.52	inactive
49	TXLNG (taxilin gamma)	1.14	0.34	inactive
50	ZFAND1 (zinc finger AN1-type containing 1)	0.54	0.92	inactive
51	SEC23IP (SEC23 interacting protein)	0.98	1.04	inactive
52	HNMT (histamine N-methyltransferase)	0.88	0.23	inactive
53	POLR3B (RNA polymerase III subunit B)	0.97	1	inactive
54	OAS3 (2'-5'-oligoadenylate synthetase 3)	0.22	0.96	inactive
55	PRRX2 (paired related homeobox 2)	1.01	0.82	inactive
56	PTPN1 (protein tyrosine phosphatase non-receptor type 1)	0.96	0.44	inactive
57	MTNR1B (melatonin receptor 1B)	0.3	1.88	inactive
58	CRYZL1 (crystallin zeta like 1)	0.67	0.58	inactive
59	TMEM145 (transmembrane protein 145)	0.88	0.6	inactive
60	PSD4 (pleckstrin and Sec7 domain containing 4)	0.86	0.42	inactive
61	NIPAL3 (NIPA like domain containing 3)	0.9	0.94	inactive
62	DBNDD2 (dysbindin domain containing 2)	0.75	1.06	inactive
63	ADGRG5 (adhesion G protein-coupled receptor G5)	0.25	0.52	inactive
64	OR52J3 (olfactory receptor family 52 subfamily J member 3)	0.28	1.15	inactive
65	BAGE3 (BAGE family member 3)	0.19	0.46	inactive
66	MYOD1 (myogenic differentiation 1)	1.44	0.66	inactive
67	FAM86C1P (family with sequence similarity 86 member C1, pseudogene)	0.21	2.09	inactive
68	KRT7 (keratin 7)	0.81	0.44	inactive
69	CEP192 (centrosomal protein 192)	0.24	0.45	active
70	GRAMD4 (GRAM domain containing 4)	0.36	1.98	inactive
71	TFAP2E (transcription factor AP-2 epsilon)	0.5	1.57	inactive
72	REPIN1 (replication initiator 1)	0.71	0.64	inactive
73	CBFA2T3 (CBFA2/RUNX1 partner transcriptional co-repressor 3)	0.55	0.97	inactive
74	RABL6 (RAB, member RAS oncogene family like 6)	0.25	1.66	inactive
75	GYPA (glycophorin A (MNS blood group))	0.95	0.55	inactive
76	TIMM21 (translocase of inner mitochondrial membrane 21)	1.05	0.76	inactive
77	CENPA (centromere protein A)	0.29	1.85	inactive
78	UCHL5 (ubiquitin C-terminal hydrolase L5)	0.41	0.66	inactive
79	C1QA (complement C1q A chain)	0.05	0.66	inactive
80	EIF1AX (eukaryotic translation initiation factor 1A X-linked)	0.4	0.8	inactive
81	BMAL1 (basic helix-loop-helix ARNT like 1)	0.17	0.99	inactive
82	KRTAP10-11 (keratin associated protein 10-11)	0.79	0.56	inactive
83	DEFB131A (defensin beta 131A)	0.78	0.54	inactive
84	OR8A1 (olfactory receptor family 8 subfamily A member 1)	0.83	0.62	inactive

Reformatted: 7 of the entries above
| gene knocked down | cell gain with vemurafenib | lactate per cell with vemurafenib | call |
| --- | --- | --- | --- |
| TFAP2E (transcription factor AP-2 epsilon) | 0.5 | 1.57 | inactive |
| REPIN1 (replication initiator 1) | 0.71 | 0.64 | inactive |
| CBFA2T3 (CBFA2/RUNX1 partner transcriptional co-repressor 3) | 0.55 | 0.97 | inactive |
| RABL6 (RAB, member RAS oncogene family like 6) | 0.25 | 1.66 | inactive |
| GYPA (glycophorin A (MNS blood group)) | 0.95 | 0.55 | inactive |
| TIMM21 (translocase of inner mitochondrial membrane 21) | 1.05 | 0.76 | inactive |
| CENPA (centromere protein A) | 0.29 | 1.85 | inactive |
